These are yes or no findings as the source states them, for the method shown. Some entries that bind do so weakly or less than the wild type. Blank lines part the entries; values can stand above or below the binder they belong to.
Experiments:
human properdin (human) [1] = molecular target: human properdin (human) (UniProt P27918); test: ELISA on properdin-coated plate (legend of FIG. 5)
human properdin (human) [2] = molecular target: human properdin (human) (UniProt P27918); test: ELISA on properdin-coated plate, peroxidase-conjugated goat anti-mouse detection
human properdin (human) [3] = molecular target: human properdin (human) (UniProt P27918); test: ELISA on properdin-coated plate

Chains of the proteins cited; added tags and fusions are not shown. Residues count along the entry.
UniProt P27918, residues 28-469: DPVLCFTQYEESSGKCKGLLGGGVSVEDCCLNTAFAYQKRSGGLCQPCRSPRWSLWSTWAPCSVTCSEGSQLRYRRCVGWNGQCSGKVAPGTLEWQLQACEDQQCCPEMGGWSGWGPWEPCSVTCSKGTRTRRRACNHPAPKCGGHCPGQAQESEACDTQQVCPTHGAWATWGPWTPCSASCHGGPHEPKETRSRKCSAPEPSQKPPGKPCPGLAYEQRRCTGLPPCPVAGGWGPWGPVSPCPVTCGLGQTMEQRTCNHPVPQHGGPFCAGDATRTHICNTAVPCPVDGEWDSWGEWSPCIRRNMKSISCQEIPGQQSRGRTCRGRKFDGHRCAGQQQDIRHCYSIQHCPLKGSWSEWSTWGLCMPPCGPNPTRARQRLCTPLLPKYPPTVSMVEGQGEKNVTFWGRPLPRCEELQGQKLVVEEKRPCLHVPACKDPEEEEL

binding (human properdin (human) [1]): binds
binding (human properdin (human) [2]): binds
binding (human properdin (human) [3]): binds
B1: anti-properdin monoclonal antibody IgG (14G11) (antibody, V domains shown)
VH: QVTLKESGPGILQPSQTLSLTCSFSGFSLSTSGMGVGWIRQPSGKGLEWLAHIWWDDVKSYNPALKSRLTISKDTSSSQVFLRIASVDTADTATYYCARIGDGYYSFDYWGQGTTLTVSS
VL: DIVMTQSHKFMSTSVGDRVSISCKASQDVSDAVAWFQQKPGQSPKLLIYSPSYRYTGVPDRFTGSGSGTDFTFTISSVQAEDLAVYYCQQHYSTPWTFGGGTKLEIKR

binding (human properdin (human) [3]): binds
B2: anti-properdin Fab (of 14G11) (Fab, V domains shown)
VH: B1 VH
VL: B1 VL

— patent publication EP2544694B1
